According to paper PMC5919683, “Transcription factor HAT1 is a substrate of SnRK2.3 kinase and negatively regulates ABA synthesis and signaling in Arabidopsis responding to drought” (PLoS Genetics, 2018):

Molecular target: T1, GST-SnRK2.3 (Arabidopsis thaliana, UniProt Q39193 1-361)
T1 construct: SnRK2.3 of Arabidopsis; coding region inserted into pGEX-6P-1; also called GST-SnRK2s; SnRK2.3 fused with GST; source: recombinant (pGEX-6P-1 vector), purified with glutathione beads (Sigma)
T1 sequence (looked up): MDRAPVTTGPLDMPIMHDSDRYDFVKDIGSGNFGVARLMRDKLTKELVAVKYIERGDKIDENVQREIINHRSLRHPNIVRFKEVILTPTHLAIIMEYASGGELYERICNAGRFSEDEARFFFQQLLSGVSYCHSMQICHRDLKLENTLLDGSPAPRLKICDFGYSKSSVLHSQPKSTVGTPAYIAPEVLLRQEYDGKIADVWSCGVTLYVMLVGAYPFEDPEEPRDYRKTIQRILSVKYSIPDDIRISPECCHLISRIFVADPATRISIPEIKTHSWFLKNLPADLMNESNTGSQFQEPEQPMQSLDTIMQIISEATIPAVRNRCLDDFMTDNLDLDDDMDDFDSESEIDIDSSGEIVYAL
Test: pull-down; GST pull-down: GST or GST-SnRK2s as bait, MBP-tagged HAT1 or its domains detected by western blotting with anti-MBP antibody; both purified

- binding: binds
Substance: MBP-HAT1 N-terminal region (Arabidopsis thaliana) (domain or fragment)

These are yes or no findings as the source states them, for the method shown. Binding can be weak; no strength is given. Sequences can lack the tags named with a protein.
